Values from PubChem BioAssay AID504786 (Drosophila RNAi Screening Center, 2011).

- Screen: 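Positive regulators of HIF-driven reporter output in Drosophila cells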 (primary screen)
- Cell system: Drosophila S2 cells with a stable HIF luciferase reporter
- Reagents: long dsRNA against Drosophila genes, about 0.2 µg dsRNA per well of a 384-well plate
- Time to read-out: three days of knock-down, then 20 h of DFO before reading
- Conditions: desferrioxamine (DFO) at 100 µM, an iron chelator that mimics hypoxia, for 20 h
- Detection: 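Firefly luciferase driven by the mouse ldh-a hypoxia-response element, measured after 20 h of 100 µM DFO; z-scores per plate, higher means more signal lost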
- Direction: z-score: higher = stronger loss of HIF reporter signal
The deposit covers about 21,000 reagents; shown is an unselected part of those with a known target gene and a result. 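Primary screen; positive scores mean lost reporter signal, so the sign may be inverted from the usual convention.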 The numbers tell different reagents against one gene apart.

The first 2 entries as a preview:
{"target gene": "CG1024", "reagent no.": 1, "z-score, replicate 1": 0.9, "z-score, replicate 2": 2.1}
{"target gene": "CG8642", "reagent no.": 1, "z-score, replicate 1": -0.3, "z-score, replicate 2": -0.4}

The listing, from the start:
{"target gene": "CG1024", "reagent no.": 1, "z-score, replicate 1": 0.9, "z-score, replicate 2": 2.1}
{"target gene": "CG8642", "reagent no.": 1, "z-score, replicate 1": -0.3, "z-score, replicate 2": -0.4}
{"target gene": "sfl", "reagent no.": 1, "z-score, replicate 1": 0.5, "z-score, replicate 2": 1.5}
{"target gene": "sfl", "reagent no.": 2, "z-score, replicate 1": -0.1, "z-score, replicate 2": 1.1}
{"target gene": "eEF1alpha2", "reagent no.": 1, "z-score, replicate 1": -0.2, "z-score, replicate 2": 0.1}
{"target gene": "eEF1alpha2", "reagent no.": 2, "z-score, replicate 1": 1.9, "z-score, replicate 2": 2.9}
{"target gene": "Rab3GAP1", "reagent no.": 1, "z-score, replicate 1": -0.3, "z-score, replicate 2": -0.4}
{"target gene": "Rab3GAP1", "reagent no.": 2, "z-score, replicate 1": -0.4, "z-score, replicate 2": -0.1}
{"target gene": "Cyp316a1", "reagent no.": 1, "z-score, replicate 1": -0.3, "z-score, replicate 2": 0.5}
{"target gene": "CG5381", "reagent no.": 1, "z-score, replicate 1": 0.6, "z-score, replicate 2": 0.2}
{"target gene": "fzo", "reagent no.": 1, "z-score, replicate 1": -0.2, "z-score, replicate 2": -0.2}
{"target gene": "CG17068", "reagent no.": 1, "z-score, replicate 1": -0.3, "z-score, replicate 2": -0.4}
{"target gene": "Pph13", "reagent no.": 1, "z-score, replicate 1": -0.3, "z-score, replicate 2": -0.8}
{"target gene": "knon", "reagent no.": 1, "z-score, replicate 1": -0.3, "z-score, replicate 2": -0.4}
{"target gene": "CG17715", "reagent no.": 1, "z-score, replicate 1": -0.3, "z-score, replicate 2": 0.2}
{"target gene": "Cda4", "reagent no.": 1, "z-score, replicate 1": -0.4, "z-score, replicate 2": 0}
{"target gene": "Cda4", "reagent no.": 2, "z-score, replicate 1": -0.3, "z-score, replicate 2": 0}
{"target gene": "Cda4", "reagent no.": 3, "z-score, replicate 1": -0.3, "z-score, replicate 2": 0}
